Reference: PubChem BioAssay AID330 (DTP/NCI, 2004)
The list does not hold the whole screen: it is rich in T/C values a quarter to a half above the control, in often repeated tests (any T/C) and in doses without a T/C. Further doses and runs are listed elsewhere. T/C is the treated group as % of the vehicle group. Some doses have a count of surviving animals in place of a T/C: the source files T/C as zero there, which appears to mark a toxic dose or a test without result, not a measured value. Some survivor counts are full or nearly so, which does not show that the dose was tolerated: survival well below the control is almost never listed, so the zero probably covers shortened survival too. Survivors were counted at the toxicity check, usually on the fifth day, unless a day is given; later deaths do not show. Schedules are NCI's codes, read here as Q, the interval in days (D) or hours (H), X, the number of doses. Some entries were tested several times; their values stand side by side, smallest first. For survival time, this PubChem deposit counts one and a half times the control or more as active, and values a quarter to a half above the control carry no call in these data; other NCI protocols may use other cut-offs. Some T/C values are followed by the survivors on the day toxicity was checked, most often the fifth; where none is given, no animal had died by that day.

Tested on: P388 leukemia ip, CD2F1 mice, survival T/C
Assay: NCI In Vivo Anticancer Drug Screen. Data for tumor model P388 Leukemia (intraperitoneal) in CD2F1 (CDF1) mice
Conditions: T/C endpoint: median survival time, higher T/C = longer survival
[1] = dose: 12.5 mg/kg/injection, schedule: Q01DX005 (ip), vehicle: Klucel (hydroxypropylcellulose) (HPC)
[2] = dose: 50.0 mg/kg/injection, schedule: Q01DX005 (ip), vehicle: Klucel (hydroxypropylcellulose) (HPC)
[3] = dose: 100.0 mg/kg/injection, schedule: Q01DX005 (ip), vehicle: Klucel (hydroxypropylcellulose) (HPC)
[4] = dose: 200.0 mg/kg/injection, schedule: Q01DX005 (ip), vehicle: Klucel (hydroxypropylcellulose) (HPC)
[5] = dose: 240.0 mg/kg/injection, schedule: Q01DX005 (ip), vehicle: saline with Tween-80
[6] = dose: 50.0 mg/kg/injection, schedule: Q04DX003 (ip), vehicle: saline with Tween-80
[7] = dose: 100.0 mg/kg/injection, schedule: Q04DX003 (ip), vehicle: saline with Tween-80
[8] = dose: 200.0 mg/kg/injection, schedule: Q01DX009 (ip), vehicle: saline
[9] = dose: 12.5 mg/kg/injection, schedule: Q01DX005 (ip), vehicle: saline with Tween-80
[10] = dose: 50.0 mg/kg/injection, schedule: Q01DX009 (ip), vehicle: saline with Tween-80
[11] = dose: 100.0 mg/kg/injection, schedule: Q01DX009 (ip), vehicle: saline with Tween-80
[12] = dose: 200.0 mg/kg/injection, schedule: Q01DX009 (ip), vehicle: saline with Tween-80

Structure (SMILES): C[CH2][Sn]([CH2]C)([n]1c(C)nc2ccccc21)[n]1c(C)nc2ccccc21
- T/C (dose: 3.12 mg/kg/injection, schedule: Q01DX005 (ip), vehicle: Klucel (hydroxypropylcellulose) (HPC)): 131 % of control
- T/C (dose: 6.25 mg/kg/injection, schedule: Q01DX005 (ip), vehicle: Klucel (hydroxypropylcellulose) (HPC)): 128 % of control [5 of 6 alive]
- T/C [1]: 128 % of control [5 of 6 alive]
- survivor count [1]: 4 of 6
- survivor count [2]: 0 of 6
- survivor count [3]: 0 of 6
- survivor count [4]: 0 of 6

Structure (SMILES): NC(=S)N/N=C/c1ccnnc1
- survivor count (dose: 50.0 mg/kg/injection, schedule: Q04DX003 (ip), vehicle: suspension in saline): 6 of 6
- survivor count (dose: 100.0 mg/kg/injection, schedule: Q04DX003 (ip), vehicle: suspension in saline): 6 of 6

Structure (SMILES): CCc1cccc(C)c1NC(=O)/C(Cl)=C(\Cl)C(=O)O
- survivor count [5]: 0 of 6

Structure (SMILES): O=C(Nc1ccc(Br)c2ccccc12)c1ccc2ccccc2c1O
- survivor count [5]: 6 of 6

Structure (SMILES): CN1CCN(c2cc3nc[nH]c(=O)c3cc2[N+](=O)[O-])CC1
- survivor count (dose: 200.0 mg/kg/injection, schedule: Q04DX003 (ip), vehicle: Klucel (hydroxypropylcellulose) (HPC)): 0 of 6

Structure (SMILES): COc1cc2c3c(cccc3c1)C(=O)N(CCN1CCCC1)C2=O
- survivor count (dose: 138.6 mg/kg/injection, schedule: Q01DX009 (ip), vehicle: saline with Tween-80): 6 of 6

Structure (SMILES): C=CC(=O)N(C)c1nc(N(C)C)nc(N(C)C)n1
- survivor count [4]: 0 of 6

Structure (SMILES): O=c1[nH]cnc2nc(/N=N/SCCO)[nH]c12
- T/C [2]: 126 % of control
- T/C [3]: 136 % of control [5 of 6 alive]
- T/C [4]: 135 [3 of 4 alive] and 142 % of control

Structure (SMILES): COc1cccc2c1C(=O)c1c(O)c3c(c(O)c1C2=O)C[C@@](O)(C(C)=O)C[C@@H]3OC1CC(N=C(N)CCSSCCC(N)=NC2CC(O[C@H]3C[C@](O)(C(C)=O)Cc4c(O)c5c(c(O)c43)C(=O)c3c(OC)cccc3C5=O)OC(C)C2O)C(O)C(C)O1 (stereo partly drawn)
- T/C (dose: 12.5 mg/kg/injection, schedule: Q04DX003 (ip), vehicle: distilled water + Tween-80): 135 % of control
- T/C (dose: 25.0 mg/kg/injection, schedule: Q04DX003 (ip), vehicle: distilled water + Tween-80): 134 % of control
- T/C (dose: 50.0 mg/kg/injection, schedule: Q04DX003 (ip), vehicle: distilled water + Tween-80): 141 % of control

Structure (SMILES): CCC[CH2][Sn]([CH2]CCC)([O]C(=O)/C=C/c1ccccc1)[O]C(=O)/C=C/c1ccccc1
- survivor count (dose: 3.12 mg/kg/injection, schedule: Q04DX003 (ip), vehicle: DMSO): 6 of 6
- survivor count (dose: 6.25 mg/kg/injection, schedule: Q04DX003 (ip), vehicle: DMSO): 4 of 6
- survivor count (dose: 11.0 mg/kg/injection, schedule: Q04DX003 (ip), vehicle: DMSO): 2 of 6
- survivor count (dose: 12.5 mg/kg/injection, schedule: Q04DX003 (ip), vehicle: DMSO): 0 of 6 and 3 of 6
- survivor count (dose: 16.5 mg/kg/injection, schedule: Q04DX003 (ip), vehicle: DMSO): 0 of 6
- survivor count (dose: 25.0 mg/kg/injection, schedule: Q04DX003 (ip), vehicle: DMSO): 0 of 6
- T/C (dose: 25.0 mg/kg/injection, schedule: Q04DX003 (ip), vehicle: saline with Tween-80): 126 % of control
- survivor count (dose: 37.5 mg/kg/injection, schedule: Q04DX003 (ip), vehicle: DMSO): 0 of 6
- survivor count [6]: 2 of 6
- survivor count [7]: 0 of 6

Structure (SMILES): CCOC(=O)c1cnc2ccccn2c1=O
- survivor count [8]: 6 of 6
- survivor count (dose: 400.0 mg/kg/injection, schedule: Q01DX009 (ip), vehicle: saline): 5 of 6

Structure (SMILES): CO[C@@]12[C@@H]3N[C@@H]3CN1C1=C(C(=O)C(N3CCCC3)=C(C)C1=O)[C@@H]2COC(N)=O
- T/C (dose: 0.78 mg/kg/injection, schedule: Q01DX005 (ip), vehicle: saline with Tween-80): 141 % of control
- T/C (dose: 1.56 mg/kg/injection, schedule: Q01DX005 (ip), vehicle: saline with Tween-80): 138, 141, 161, 196, 200 % of control
- T/C (dose: 2.25 mg/kg/injection, schedule: Q01DX005 (ip), vehicle: saline with Tween-80): 149 % of control
- T/C (dose: 3.12 mg/kg/injection, schedule: Q01DX005 (ip), vehicle: saline with Tween-80): 137, 191, 209, 232 % of control
- T/C (dose: 3.13 mg/kg/injection, schedule: Q01DX005 (ip), vehicle: saline with Tween-80): 144 % of control
- T/C (dose: 6.25 mg/kg/injection, schedule: Q01DX005 (ip), vehicle: saline with Tween-80, evaluated on day 23): 214 % of control
- T/C (dose: 6.25 mg/kg/injection, schedule: Q01DX005 (ip), vehicle: saline with Tween-80, evaluated on day 30): 186, 194, 205, 224, 241, 272 % of control
- T/C [9]: 191 and 217 % of control
- survivor count [9]: 10 of 10 and 6 of 6
- survivor count (dose: 25.0 mg/kg/injection, schedule: Q01DX005 (ip), vehicle: saline with Tween-80): 3 of 6
- survivor count (dose: 50.0 mg/kg/injection, schedule: Q01DX005 (ip), vehicle: saline with Tween-80): 0 of 6
- survivor count (dose: 100.0 mg/kg/injection, schedule: Q01DX005 (ip), vehicle: saline with Tween-80): 0 of 6

Structure (SMILES): CC(=N/NC(=S)NCCN1CCCCC1)/C(C)=N\NC(=S)NCCN1CCCCC1
- survivor count [10]: 0 of 6
- survivor count [6]: 3 of 6
- survivor count [11]: 0 of 6
- survivor count [7]: 0 of 6
- survivor count [12]: 0 of 6

Structure (SMILES): CCCCCCOc1ccc(OCCCC[N+]2(CC)CCCCC2)cc1
- survivor count (dose: 50.0 mg/kg/injection, schedule: Q01DX009 (ip), vehicle: saline): 0 of 6
- survivor count (dose: 100.0 mg/kg/injection, schedule: Q01DX009 (ip), vehicle: saline): 0 of 6
- survivor count [8]: 0 of 6

Structure (SMILES): COc1ccc2c(=O)c(Cc3c[nH]c4ccccc34)coc2c1
- survivor count (dose: 60.0 mg/kg/injection, schedule: Q01DX005 (ip), vehicle: saline with Tween-80): 6 of 6
- survivor count (dose: 120.0 mg/kg/injection, schedule: Q01DX005 (ip), vehicle: saline with Tween-80): 6 of 6
- survivor count [5]: 6 of 6

Structure (SMILES): COC(=O)CC12CC3(C)CC(C)(C1)CC(CC(=O)OC)(C3)C2
- T/C [10]: 127 % of control

Structure (SMILES): COc1nc(Cl)nc(OC)n1
- survivor count [10]: 6 of 6
- survivor count [11]: 6 of 6

Structure (SMILES): Cn1c(=O)c2[nH]c(Cl)nc2n(CCCl)c1=O
- survivor count (dose: 6.25 mg/kg/injection, schedule: Q01DX009 (ip), vehicle: saline with Tween-80): 6 of 6
- survivor count [12]: 0 of 6
- survivor count (dose: 400.0 mg/kg/injection, schedule: Q01DX009 (ip), vehicle: saline with Tween-80): 0 of 6

Structure (SMILES): O=C(NC(Cc1c[nH]c2ccccc12)C(=O)O)OCC1c2ccccc2-c2ccccc21 (stereo not drawn)
- survivor count [4]: 0 of 6

Structure (SMILES): CCCC(=O)c1cc(-c2cc(C(=O)CCC)nc(N)n2)nc(N)n1
- survivor count [5]: 1 of 6

Structure (SMILES): CS(=O)(=O)c1nc(N)c(S(N)(=O)=O)c(N)n1
- survivor count (dose: 200.0 mg/kg/injection, schedule: Q01DX009 (ip), vehicle: Klucel (hydroxypropylcellulose) (HPC)): 6 of 6
- survivor count (dose: 400.0 mg/kg/injection, schedule: Q01DX009 (ip), vehicle: Klucel (hydroxypropylcellulose) (HPC)): 6 of 6

Structure (SMILES): CCN(CC)CCCC(C)Nc1nc(-c2ccc(OC)cc2)nc2cc(Cl)ccc12 (stereo not drawn)
- survivor count (dose: 200.0 mg/kg/injection, schedule: Q01DX005 (ip), vehicle: saline): 1 of 5

Structure (SMILES): COC(=O)c1ccc(=O)c2nc3/c(=C/O)c(O)cc(=O)c3[nH]c12
- T/C (dose: 0.15 mg/kg/injection, schedule: Q01DX009 (ip), vehicle: saline with Tween-80): 140 % of control
- survivor count (dose: 0.6 mg/kg/injection, schedule: Q01DX009 (ip), vehicle: saline with Tween-80): 5 of 6
